## Percent effect of library compounds

Source: ChEMBL document CHEMBL3988442, “University of Dundee, Small-Polar-MMV Screening Library” (2021).

Mtb glucose medium: 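Whole-cell growth test on Mycobacterium tuberculosis, read after 3 days in glucose-containing 7H9 medium; the read-out is not stated. Tested at 500 µM. The record gives no direction; compounds that gave an IC50 in retests scored well above the rest, so higher reads as more growth inhibition. About 18,000 compounds were tested under these conditions; 7.9% (about 1,400) showed 50% or more at least once.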
Mtb cholesterol medium: 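Phenotypic screen: M. tuberculosis growth, cholesterol and DPPC medium, 4 days; the read-out is not stated. Compounds at 500 µM. Higher reads as more growth inhibition (inferred: compounds with an IC50 in retests scored well above the rest). Size under these conditions: about 18,000 compounds, about 900 of them at 50% or above in at least one test.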

Values are the deposited “Percent Effect”, in %.
How 0% and 100% were set is not recorded. Most values in the screen are low, and negative values occur.
This is an unselected part of the compounds tested.

- CNCC(=O)Nc1ccccc1OC : Mtb glucose medium: 2.816%; Mtb cholesterol medium: 5.069%
- NCC(CO)Cc1cccc(F)c1 (centres undefined) : Mtb glucose medium: 19.88%; Mtb cholesterol medium: 6.548%
- CC(=O)Nc1ccc(CN2CCCOC(C)C2)cc1 (centres undefined) : Mtb glucose medium: -4.569%; Mtb cholesterol medium: -11.71%
- CC(C)C(NC(=O)N1CCCC1)c1nnc2n1CCC2 (centres undefined) : Mtb glucose medium: 13.56%; Mtb cholesterol medium: -5.524%
- CO[C@H]1[C@@H]2CC[C@H]1CN(C(=O)c1cccc(N)n1)C2 : Mtb glucose medium: -3.228%; Mtb cholesterol medium: -1.678%
- N#Cc1cccc(CN2CCCCC2CO)c1 (centres undefined) : Mtb glucose medium: 4.926%; Mtb cholesterol medium: 3.699%
- OC1CCOC2(CCOCC2)C1 (centres undefined) : Mtb glucose medium: -10.73%; Mtb cholesterol medium: -2.538%
- CSCC(=O)Nc1ccc(N2C(=O)CCCC2=O)cc1 : Mtb glucose medium: 5.205%; Mtb cholesterol medium: 2.095%
- OC(c1ccccc1)C1CCNCC1 (centres undefined) : Mtb glucose medium: 2.739%; Mtb cholesterol medium: 5.176%
- CN(CCCO)C(CCO)c1ccccc1 (centres undefined) : Mtb glucose medium: 9.245%; Mtb cholesterol medium: 0.4744%
- CC(C)CCNC(=O)Nc1c[nH]c(=O)[nH]c1=O : Mtb glucose medium: -7.247%; Mtb cholesterol medium: -9.358%
- Nc1nnc(SCCc2ccccc2)[nH]1 : Mtb glucose medium: 28.68%; Mtb cholesterol medium: 26.88%
- O=S(=O)(NCC1CCCO1)c1cccc2nonc12 (centres undefined) : Mtb glucose medium: -6.077%; Mtb cholesterol medium: -8.814%
- CNC(=O)c1ccc(S(=O)(=O)NCC(C)C)cc1 : Mtb glucose medium: 25.9%; Mtb cholesterol medium: 9.165%
- CC(N[C@@H]1C=C[C@H](CO)C1)c1cncc(F)c1 (some centres undefined) : Mtb glucose medium: -6.2%; Mtb cholesterol medium: -14.19%
- Cc1cc(CN(C)C(=O)c2cnn(C)c2C)no1 : Mtb glucose medium: 1.528%; Mtb cholesterol medium: 4.88%
- CSCCCN1CCN(C(=O)c2ccc[nH]2)CC1 : Mtb glucose medium: 5.572%; Mtb cholesterol medium: -7.479%
- c1cc2c(cc1CNC1CC1)OCO2 : Mtb glucose medium: 13.38%; Mtb cholesterol medium: 12.62%
- CNC(=O)[C@@H]1Cc2ccccc2N1 : Mtb glucose medium: 13.15%; Mtb cholesterol medium: 0.7123%
- CSc1ncccc1C(=O)N1CCOCC1 : Mtb glucose medium: 7.418%; Mtb cholesterol medium: 2.436%
- Cc1noc(C)c1CNC(=O)NCC1CCCOC1 (centres undefined) : Mtb glucose medium: 0.5528%; Mtb cholesterol medium: -17.01%
- COC(=O)COCC(C)=O : Mtb glucose medium: 19.86%; Mtb cholesterol medium: 25.54%
- CC1(O)COc2ccccc2OC1 : Mtb glucose medium: 1.598%; Mtb cholesterol medium: -23.61%
- Cc1nc(CN2CCN(c3ncccc3F)CC2)n[nH]1 : Mtb glucose medium: 26.27%; Mtb cholesterol medium: 13.66%
- NC(=O)CCS(=O)(=O)CCN1CCCCCC1 : Mtb glucose medium: 64.53%; Mtb cholesterol medium: 40.43%
- COCC(=O)NC(C)c1ccc(OC(C)C)c(OC)c1 (centres undefined) : Mtb glucose medium: 28.14%; Mtb cholesterol medium: 7.605%
- CC(C)N(CCCNc1ncccc1F)S(C)(=O)=O : Mtb glucose medium: 38.5%; Mtb cholesterol medium: 10.44%
- CC(C)Cc1cc(C(=O)NCCn2cnnn2)no1 : Mtb glucose medium: 10.19%; Mtb cholesterol medium: 6.003%
- CNC1(CO)CCc2ccccc21 (centres undefined) : Mtb glucose medium: 10.38%; Mtb cholesterol medium: 1.489%
- COCCS(=O)(=O)CC(=O)Nc1ccccc1Br : Mtb glucose medium: 33.36%; Mtb cholesterol medium: 4.372%
- CN(C(=O)c1ccc(Br)cn1)c1ccc2c(c1)OCO2 : Mtb glucose medium: -2.991%; Mtb cholesterol medium: -1.941%
- Cn1ncc2c(NCC(=O)N3CCCC3)ncnc21 : Mtb glucose medium: 5.754%; Mtb cholesterol medium: -7.437%
- CN[C@@H]1COc2ccccc2[C@H](O)C1 : Mtb glucose medium: -23.76%; Mtb cholesterol medium: -30.37%
- Cc1ocnc1C(=O)Nc1ccc2c(c1)NCCC2 : Mtb glucose medium: 22.97%; Mtb cholesterol medium: 16.1%
- CN1CCCCC1CCC(=O)NCc1ccc(O)cc1 (centres undefined) : Mtb glucose medium: 11.39%; Mtb cholesterol medium: 10.2%
- Cc1cccc(C(=O)N(C)C)c1C : Mtb glucose medium: -5.51%; Mtb cholesterol medium: -13.74%
- CCOC(C)(C)CNC(=O)NCc1ccncc1 : Mtb glucose medium: -7.084%; Mtb cholesterol medium: -19.04%
- CC(=O)c1nc(C)sc1C : Mtb glucose medium: -0.7379%; Mtb cholesterol medium: -4.762%
- O=C(NCCN1CCCC1)c1ccc2ccccc2n1 : Mtb glucose medium: 80.38%; Mtb cholesterol medium: 51.07%
- COC(=O)CN1C(=O)CCc2ccccc21 : Mtb glucose medium: 11.83%; Mtb cholesterol medium: -2.367%
- CN(CC(O)CN1CCOCC1)C1CCCCC1 (centres undefined) : Mtb glucose medium: 2.931%; Mtb cholesterol medium: 7.839%
- O=C(c1ccccc1)N1CCC(NC2CCOCC2)C1 (centres undefined) : Mtb glucose medium: -7.969%; Mtb cholesterol medium: -27.69%
- COCCC(C)Nc1c[nH]nc1-c1ccccn1 (centres undefined) : Mtb glucose medium: 53.59%; Mtb cholesterol medium: 17.14%
- CC(C)OCC(O)CN1CCc2ccc(O)cc2C1 (centres undefined) : Mtb glucose medium: 11.73%; Mtb cholesterol medium: 15.39%
- O=C(c1cccc(Cl)c1Cl)N1CCNCC1 : Mtb glucose medium: 10.85%; Mtb cholesterol medium: -9.994%
- CCOc1ccc(Cl)cc1C(N)=O : Mtb glucose medium: 30.21%; Mtb cholesterol medium: 14.88%
- CO[C@@H]1CCOC[C@H]1NC(=O)CCc1ccccn1 : Mtb glucose medium: 7.736%; Mtb cholesterol medium: -9.807%
- CC(CCc1ccccc1)CC(=O)N(C)CC(N)=O (centres undefined) : Mtb glucose medium: 44.47%; Mtb cholesterol medium: 41.18%

Repeated from the top, 5 entries:

CNCC(=O)Nc1ccccc1OC read Mtb glucose medium: 2.816%; Mtb cholesterol medium: 5.069%.
NCC(CO)Cc1cccc(F)c1 (centres undefined) read Mtb glucose medium: 19.88%; Mtb cholesterol medium: 6.548%.
CC(=O)Nc1ccc(CN2CCCOC(C)C2)cc1 (centres undefined) read Mtb glucose medium: -4.569%; Mtb cholesterol medium: -11.71%.
CC(C)C(NC(=O)N1CCCC1)c1nnc2n1CCC2 (centres undefined) read Mtb glucose medium: 13.56%; Mtb cholesterol medium: -5.524%.
CO[C@H]1[C@@H]2CC[C@H]1CN(C(=O)c1cccc(N)n1)C2 read Mtb glucose medium: -3.228%; Mtb cholesterol medium: -1.678%.